Data from paper PMC4737874.
These are yes or no findings as the source states them, for the method shown. Binding seen in cells or lysates may run through a third protein. Some entries that bind do so weakly or less than the wild type.

By UniProt entry, the sequences of proteins in these tests, tags left out. Residues count along the entry.
UniProt P05362, residues 28-532: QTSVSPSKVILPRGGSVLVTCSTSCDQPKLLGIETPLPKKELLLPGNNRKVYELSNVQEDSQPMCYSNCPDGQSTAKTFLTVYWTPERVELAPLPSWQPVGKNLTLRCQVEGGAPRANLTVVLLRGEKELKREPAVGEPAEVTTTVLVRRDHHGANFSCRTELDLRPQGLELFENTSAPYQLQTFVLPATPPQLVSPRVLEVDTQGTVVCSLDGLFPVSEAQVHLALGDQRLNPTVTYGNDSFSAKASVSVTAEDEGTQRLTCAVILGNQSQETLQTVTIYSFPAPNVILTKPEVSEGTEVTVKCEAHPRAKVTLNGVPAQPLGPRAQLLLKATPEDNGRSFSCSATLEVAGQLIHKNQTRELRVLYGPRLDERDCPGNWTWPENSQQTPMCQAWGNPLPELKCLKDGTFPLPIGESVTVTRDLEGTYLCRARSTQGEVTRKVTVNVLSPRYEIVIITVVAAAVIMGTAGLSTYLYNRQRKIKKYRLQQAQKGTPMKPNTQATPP
UniProt Q9NZN5: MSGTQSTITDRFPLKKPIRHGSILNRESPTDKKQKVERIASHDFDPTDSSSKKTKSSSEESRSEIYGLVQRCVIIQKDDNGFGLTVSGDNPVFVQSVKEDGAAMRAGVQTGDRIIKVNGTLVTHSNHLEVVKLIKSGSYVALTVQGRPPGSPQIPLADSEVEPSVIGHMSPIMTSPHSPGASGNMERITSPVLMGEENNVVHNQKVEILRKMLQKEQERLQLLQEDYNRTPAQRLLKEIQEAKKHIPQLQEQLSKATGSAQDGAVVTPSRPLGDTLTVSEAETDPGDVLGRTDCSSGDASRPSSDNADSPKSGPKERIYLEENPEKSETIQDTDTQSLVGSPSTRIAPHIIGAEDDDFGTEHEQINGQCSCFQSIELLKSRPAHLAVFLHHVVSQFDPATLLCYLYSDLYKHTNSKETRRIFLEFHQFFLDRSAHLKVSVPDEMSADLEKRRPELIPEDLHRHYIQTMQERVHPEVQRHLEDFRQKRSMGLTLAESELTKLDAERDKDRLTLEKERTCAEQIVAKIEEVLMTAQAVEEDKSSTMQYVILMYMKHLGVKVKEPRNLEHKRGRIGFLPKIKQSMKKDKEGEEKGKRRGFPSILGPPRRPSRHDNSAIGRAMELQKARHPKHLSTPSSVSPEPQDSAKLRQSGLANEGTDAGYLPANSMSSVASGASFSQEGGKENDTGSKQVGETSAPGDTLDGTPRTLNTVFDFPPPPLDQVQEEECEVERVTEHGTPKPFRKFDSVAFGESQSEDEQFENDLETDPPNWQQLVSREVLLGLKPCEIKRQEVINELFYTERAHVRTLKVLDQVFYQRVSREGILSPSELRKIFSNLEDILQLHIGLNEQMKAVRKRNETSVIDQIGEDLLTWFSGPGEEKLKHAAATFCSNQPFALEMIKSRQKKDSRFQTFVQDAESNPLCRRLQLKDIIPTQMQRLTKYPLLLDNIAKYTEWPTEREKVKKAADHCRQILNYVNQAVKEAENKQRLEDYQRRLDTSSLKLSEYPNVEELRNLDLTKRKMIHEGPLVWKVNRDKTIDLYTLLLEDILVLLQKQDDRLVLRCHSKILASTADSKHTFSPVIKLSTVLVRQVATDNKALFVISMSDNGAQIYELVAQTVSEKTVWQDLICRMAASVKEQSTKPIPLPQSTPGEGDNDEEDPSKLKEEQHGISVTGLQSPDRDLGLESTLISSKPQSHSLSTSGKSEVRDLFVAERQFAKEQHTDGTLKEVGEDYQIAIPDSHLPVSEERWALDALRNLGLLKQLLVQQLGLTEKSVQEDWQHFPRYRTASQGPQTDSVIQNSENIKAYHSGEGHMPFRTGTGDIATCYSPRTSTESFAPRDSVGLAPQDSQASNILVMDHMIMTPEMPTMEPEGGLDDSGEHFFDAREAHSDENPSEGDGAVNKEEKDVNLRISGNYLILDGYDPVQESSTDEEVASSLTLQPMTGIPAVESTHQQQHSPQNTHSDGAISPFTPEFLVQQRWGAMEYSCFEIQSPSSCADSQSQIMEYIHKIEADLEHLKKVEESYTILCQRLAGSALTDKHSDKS

Molecular target: ICAM-1 (human (endogenous in HUVEC)) (UniProt P05362)
Test: co-IP; pull-out: beads coated with anti-ICAM-1 or anti-PECAM-1 antibody cluster the receptor on TNF-α treated HUVEC (for ICAM-1: ionomycin 1 μM 10 min, clustering 10-30 min), lysis in RIPA buffer pH 7.4, beads with lysate 1-2 h at 4 °C, washes, western blot

binding: binds
Substance: LARG (from UniProt Q9NZN5 1-1544)
